These are yes or no findings as the source states them, for the method shown. Binding seen in cells or lysates may run through a third protein. Some entries that bind do so weakly or less than the wild type.
Biological target: T1, TRAF6, endogenous in murine iTregs (mouse (endogenous in iTregs)) (UniProt P70196)
T1 sequence: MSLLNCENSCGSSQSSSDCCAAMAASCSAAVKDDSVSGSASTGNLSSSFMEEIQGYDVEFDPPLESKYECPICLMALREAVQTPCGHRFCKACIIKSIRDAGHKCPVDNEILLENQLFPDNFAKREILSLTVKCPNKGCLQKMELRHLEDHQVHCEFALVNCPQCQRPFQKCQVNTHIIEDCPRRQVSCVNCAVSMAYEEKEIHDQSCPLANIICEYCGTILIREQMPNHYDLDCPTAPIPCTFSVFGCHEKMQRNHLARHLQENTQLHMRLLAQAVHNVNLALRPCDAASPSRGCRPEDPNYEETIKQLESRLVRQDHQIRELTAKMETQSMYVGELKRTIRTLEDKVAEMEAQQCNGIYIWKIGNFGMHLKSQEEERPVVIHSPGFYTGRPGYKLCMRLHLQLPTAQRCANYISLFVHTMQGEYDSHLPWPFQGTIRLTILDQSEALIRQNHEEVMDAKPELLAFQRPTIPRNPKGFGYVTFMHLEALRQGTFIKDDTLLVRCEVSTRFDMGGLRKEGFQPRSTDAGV
Assay: co-IP

binding: binds
B1: Foxp3, endogenous in murine iTregs (protein, UniProt Q99JB6 1-417)
chain: MPNPRPAKPMAPSLALGPSPGVLPSWKTAPKGSELLGTRGSGGPFQGRDLRSGAHTSSSLNPLPPSQLQLPTVPLVMVAPSGARLGPSPHLQALLQDRPHFMHQLSTVDAHAQTPVLQVRPLDNPAMISLPPPSAATGVFSLKARPGLPPGINVASLEWVSREPALLCTFPRSGTPRKDSNLLAAPQGSYPLLANGVCKWPGCEKVFEEPEEFLKHCQADHLLDEKGKAQCLLQREVVQSLEQQLELEKEKLGAMQAHLAGKMALAKAPSVASMDKSSCCIVATSTQGSVLPAWSAPREAPDGGLFAVRRHLWGSHGNSSFPEFFHNMDYFKYHNMRPPFTYATLIRWAILEAPERQRTLNEIYHWFTRMFAYFRNHPATWKNAIRHNLSLHKCFVRVESEKGAVWTVDEFEFRKKR

From doi:10.1101/316000
